# In PubChem BioAssay AID504467 (National Center for Advancing Translational Sciences (NCATS), 2011):
# The whole screen tested about 330,000 compounds, of which about 7,700 (2.3%) were called active. This list was built around the results that the source calls inconclusive (neither active nor inactive); the mix of calls is not that of the screen. Calls come from the whole dose curve; as a rule, active = well fitted inhibition curve with a large enough effect; inconclusive = small, poorly fitted or top-dose-only effect, or effect the other way; inactive = flat fitted curve, though single readings scatter. A potency beside an inconclusive call is a rough fit, not a confirmed value.
# Assay: qHTS screen for small molecules that inhibit ELG1-dependent DNA repair in human embryonic kidney (HEK293T) cells expressing luciferase-tagged ELG1; note: nearly all actives have a fitted effect of over 55% in size
# Details: HEK293T ELG1-luciferase reporter, luminescence, 16 h, DNA damage induced by 5-fluorouridine; series mostly up to 46.1 µM
# Summary of the method: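 Step one: seed 2,000 cells per well. Step two: pin-transfer compound or DMSO alongside 5-fluorouridine. Step three: incubate 16 hr, 37 °C, 5% CO2. Step four: add ONE-Glo, wait 30 min, read luminescence.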
# Potency is the fitted concentration of half-maximal effect.
row,Structure (SMILES),Potency
1,Cc1cc(C)n(-c2ccc3nnc(C)n3n2)n1,"inconclusive: 16.4 µM [activator, partial curve, poor fit]"
2,Nc1c(C(=O)NCc2ccccc2)sc2nc(N3CCOCC3)c3c(c12)CCCC3,"inconclusive: 25.9 µM [inhibitor, single point]"
3,CC(=O)N1CCN(c2ccc(NC(=O)c3cccc([N+](=O)[O-])c3)cc2)CC1,inactive
4,CCOC(=O)N1CCN(C(=O)Cc2ccc(Cl)cc2)CC1,inactive
5,Cn1c(CCN2CCCCC2)nc2cc(NC(=O)Nc3ccccc3)ccc21,inactive
6,COc1ccc(C2CC(=O)c3c([nH]c(C(=O)OC(C)C)c3C)C2)cc1OC (centres undefined),"inconclusive: 23.1 µM [inhibitor, single point]"
7,O=C(C1CCN(S(=O)(=O)N2CCC3(CC2)OCCO3)CC1)N1CCC(Cc2ccccc2)CC1,"inconclusive: 25.9 µM [inhibitor, single point]"
8,CCOc1ccc(N2C(=O)CC(NCCNc3ccc(C(=O)c4cccs4)cc3)C2=O)cc1 (centres undefined),"inconclusive: 18.3 µM [inhibitor, single point]"
9,C/C(=N\Nc1nc2ccccc2[nH]1)c1cccs1,"inconclusive: 2.31 µM [activator, full curve]"
10,CCOC(=O)c1sc(N/N=C/c2cccc(C)c2)nc1C,"inconclusive: 14.6 µM [activator, single point]"
11,Cc1cc(C)cc(NC(=S)N=Nc2c(O)n(C)c3ccc(S(=O)(=O)N4CCOCC4)cc23)c1,"inconclusive: 2.06 µM [inhibitor, full curve]"
12,CC(C)N1CC=C2C(C#N)=C(N)C(C#N)(C#N)C(c3ccccc3)C2C1 (centres undefined),inactive
13,NS(=O)(=O)c1ccc(O)c(N2C(=O)c3cccc4c(C(=O)c5ccccc5)ccc(c34)C2=O)c1,"inconclusive: 1.16 µM [inhibitor, single point]"
14,O=C(/C(=C/c1ccccc1Cl)c1ccccc1)N1CCOCC1,inactive
15,CCCCN(CC)CCNC(=O)c1[nH]c(C)c(C(C)=O)c1C,"inconclusive: 20.6 µM [activator, partial curve, poor fit]"
16,O=C(Nc1ccc(N2CCCC2)c(Cl)c1)c1cccnc1,"inconclusive: 29.1 µM [inhibitor, single point]"
17,Cc1ccc(CN2CC(C(=O)N3CCN(S(=O)(=O)c4ccc(C)cc4C)CC3)CC2=O)cc1 (centres undefined),"inconclusive: 20.6 µM [inhibitor, single point]"
18,N#C/C(=C\c1ccc(Cl)cc1)c1nc2ncccc2[nH]1,"inconclusive: 2.59 µM [activator, partial curve, poor fit]"
19,Cc1ccc(NC(=O)C(=O)NCCN2CCN(Cc3ccc([N+](=O)[O-])cc3)CC2)cc1,"inconclusive: 6.51 µM [inhibitor, single point]"
20,Cc1ccc(-c2nn3c(C)nnc3s2)cc1N,"inconclusive: 20.6 µM [activator, partial curve]"
21,Cn1c(Cc2cccs2)nnc1SCC(=O)N1CCCc2ccccc21,"inconclusive: 23.1 µM [inhibitor, single point]"
22,CCOc1ccc(-n2c(C)nc3c(cnn3-c3ccc(Cl)cc3)c2=O)cc1,"inconclusive: 6.51 µM [inhibitor, partial curve]"
23,O=C(CSc1nc2ncc(Br)cc2[nH]1)c1ccc([N+](=O)[O-])cc1,inactive

row,Structure (SMILES),Potency
1,COc1ccc(Cc2nnc(NC(=O)Nc3ccccc3F)s2)cc1,"inconclusive: 5.62 µM [activator, partial curve]"
2,CCc1c(C)sc(NC(=O)CN2CCN(C(=O)c3ccco3)CC2)c1C(=O)OC,"inconclusive: 32.6 µM [inhibitor, single point]"
3,COC(=O)c1c(C)[nH]c(O)c1C=Nc1ccc(C(C)C)cc1,"inconclusive: 14.6 µM [activator, partial curve]"
4,CCc1nc(Nc2ccc(N3CCN(C(C)=O)CC3)cc2)c2oc3ccccc3c2n1,active: 9.2 µM
5,O=C(CSc1nnc(CNC(=O)c2ccco2)o1)Nc1ccccc1C(F)(F)F,"inconclusive: 32.6 µM [activator, partial curve, poor fit]"
6,COc1ccccc1CN1C[C@@H]2C[C@@H](c3[nH]c4ccc(C)cc4c3C)N3CCC[C@@]23C1=O,"inconclusive: 29.1 µM [inhibitor, single point]"
7,Cn1cc(C(=O)c2cccc(Cl)c2)cc1C#N,inactive
8,COCCNC(=O)CN(Cc1cccs1)C(=O)CCC(=O)Nc1nccs1,"inconclusive: 0.92 µM [activator, full curve, poor fit]"
9,O=C(c1ccco1)N1CCC(c2ccccc2)C1 (centres undefined),"inconclusive: 12.6 µM [activator, partial curve]"
10,COc1ccc(C2=CC(=O)C[C@H](c3ccc(F)cc3)C2)c(OC)c1,"inconclusive: 29.1 µM [inhibitor, single point]"
11,N=C1/C(=C\c2ccc(OC(=O)c3ccco3)cc2)C(=O)N=C2SC=NN12,inactive
12,O=C(O)CCSc1ncnc2sc(-c3ccccc3)cc12,inactive
13,C=CCC(CC=C)(NC(=O)c1ccccc1C(=O)O)c1ccccc1,inactive
14,Cc1cc(-c2n[nH]c(=S)o2)c(C)n1-c1ccccc1,"inconclusive: 7.31 µM [activator, partial curve]"
15,O=C(NCCN1CCOCC1)c1cc(Cl)ccc1Cl,inactive
16,O=C(N/N=C/c1c[nH]c2ccccc12)c1cccc(O)c1,"inconclusive: 13 µM [activator, partial curve, poor fit]"
17,COC(=O)c1ccc(CSc2nc3c(c(=O)n2-c2ccc(F)cc2)SCC3)o1,"inconclusive: 29.1 µM [inhibitor, single point]"
18,COc1ccc(C(=O)Nc2ccc3c(c2)nc(CCNC(C)=O)n3C)cc1,"inconclusive: 9.2 µM [activator, partial curve]"
19,Cc1cc(OCCN2CC(C)OC(C)C2)ccc1[N+](=O)[O-] (centres undefined),inactive
20,COc1ccccc1-c1c(C(F)(F)F)oc2cc(OC(=O)c3ccccc3[N+](=O)[O-])ccc2c1=O,inactive
21,Cc1ccccc1Cn1cc(NC(=O)c2cc(C3CC3)on2)cn1,"inconclusive: 20.6 µM [activator, single point]"
22,O=S1(=O)c2ccccc2OC(COCc2ccccc2)CN1C1CC1 (centres undefined),inactive
23,O=C(Cc1nnc(NC(=O)c2ccccc2)s1)N/N=C/c1ccc(O)cc1,"inconclusive: 29.1 µM [activator, partial curve, poor fit]"

# Three compounds from above, arranged by count of non-hydrogen atoms, low to high:
row,Structure (SMILES),Potency
1,Cc1cc(C)n(-c2ccc3nnc(C)n3n2)n1,"inconclusive: 16.4 µM [activator, partial curve, poor fit]"
12,CC(C)N1CC=C2C(C#N)=C(N)C(C#N)(C#N)C(c3ccccc3)C2C1 (centres undefined),inactive
19,Cc1ccc(NC(=O)C(=O)NCCN2CCN(Cc3ccc([N+](=O)[O-])cc3)CC2)cc1,"inconclusive: 6.51 µM [inhibitor, single point]"

# More records.

row,Structure (SMILES),Potency
1,O=C(c1nc(-c2ccccc2)n(-c2ccccc2)n1)N1CCN(S(=O)(=O)c2ccccc2)CC1,active: 18.4 µM
2,Cc1cc(C)c2c(N)c(C(=O)NC3CC3)sc2n1,inactive
3,COc1cccc(NC(=O)c2ccc(OC(F)(F)F)cc2)c1,"inconclusive: 3.16 µM [activator, partial curve]"
4,CCCCNc1c(-c2ccc(SC(C)CC)cc2)nc2ccccn12 (centres undefined),"inconclusive: 20 µM [inhibitor, single point]"
5,O=C1COc2ccc(C(=O)COC(=O)c3sc4ccccc4c3Cl)cc2N1,inactive
6,COc1ccc(CCN(C)C(=O)CCc2nnc(-c3ccccc3)o2)cc1OC,"inconclusive: 10.3 µM [activator, partial curve]"
7,Cn1/c(=N\NC(=O)C2CCCCC2)sc2ccccc21,"inconclusive: 20.6 µM [activator, single point]"
8,COc1ccc(SC[C@H](C)CN2CC[C@H](NC(=O)OCc3ccccc3)CCC2=O)cc1,"inconclusive: 18.3 µM [inhibitor, partial curve]"
9,Cc1sc2ncnc(N3CCC(C(=O)Nc4ccc(Br)cc4Br)CC3)c2c1C,"inconclusive: 32.6 µM [inhibitor, single point]"
10,CC(C)c1ccc(N2C(=O)CC(Sc3ncccn3)C2=O)cc1 (centres undefined),inactive
11,O=C1/C(=C/c2ccc(O)cc2)CCc2ccc([N+](=O)[O-])cc21,"inconclusive: 11.6 µM [activator, partial curve, poor fit]"
12,O=C(O)C1C2C=CC(C2)C1C(=O)NCCc1ccccc1 (centres undefined),"inconclusive: 16.4 µM [activator, partial curve]"
13,O=C(NCc1ccccc1)c1cc(S(=O)(=O)N2CCC3(CC2)OCCO3)ccc1F,"inconclusive: 29.1 µM [inhibitor, single point]"
14,N#CCCN(CCC#N)C(=O)COc1ccc(Cl)cc1Cl,"inconclusive: 23.1 µM [activator, partial curve, poor fit]"
15,CCCc1n(CC(O)COC2CCCCC2)c2ccccc2[n+]1C (centres undefined),inactive
16,CCn1cc(C(=O)NCc2cccs2)c(=O)c2cc(S(=O)(=O)N3CCOCC3)ccc21,"inconclusive: 2.59 µM [inhibitor, partial curve, poor fit]"
17,COc1ccc(NC2CCCN(C(=O)c3cc(C)nc4cc(F)ccc34)C2)cc1 (centres undefined),inactive
18,COc1cc(/C=C/C(=O)OCC(=O)c2c(N)n(C)c(=O)n(C)c2=O)ccc1OCC#N,inactive
19,CC1=CC(=O)C(C(C)C)=CC1=NC(=O)c1ccc(C)cc1,inactive
20,Fc1ccc(OCc2nc(-c3cccs3)no2)cc1,"inconclusive: 23.1 µM [activator, partial curve]"
21,CCOc1ccc2nc(NC(=O)COC)sc2c1,"inconclusive: 5.17 µM [activator, partial curve]"
22,COc1ccc2c(c1)CCC/C2=N\NC(=O)c1ccoc1C,"inconclusive: 25.9 µM [activator, single point]"
23,Cc1[nH]n(C(N)=S)c(=O)c1N=Nc1cc(-c2ccc(Br)cc2)[nH]n1,"inconclusive: 23.1 µM [activator, single point]"
